In paper PMC13284301:
These are yes or no findings as the source states them, for the method shown. In cells and extracts the contact can be indirect. Some binding calls cover weakened binding; strength is not graded here. Tags and fused reporters may be left off the sequences shown.

Amino acid sequences for entries named in this document (tags omitted).
UniProt P41377: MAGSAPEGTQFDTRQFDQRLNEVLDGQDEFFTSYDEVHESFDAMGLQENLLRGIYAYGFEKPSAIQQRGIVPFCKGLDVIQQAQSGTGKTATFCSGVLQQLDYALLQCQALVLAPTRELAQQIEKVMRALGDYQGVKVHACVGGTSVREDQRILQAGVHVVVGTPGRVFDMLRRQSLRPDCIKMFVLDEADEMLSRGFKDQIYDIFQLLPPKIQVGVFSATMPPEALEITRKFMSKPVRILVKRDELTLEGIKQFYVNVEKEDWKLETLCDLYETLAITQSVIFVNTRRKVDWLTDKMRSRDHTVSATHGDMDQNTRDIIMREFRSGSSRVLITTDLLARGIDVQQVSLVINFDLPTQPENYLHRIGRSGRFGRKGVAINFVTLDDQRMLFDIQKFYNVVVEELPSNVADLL
UniProt P41376: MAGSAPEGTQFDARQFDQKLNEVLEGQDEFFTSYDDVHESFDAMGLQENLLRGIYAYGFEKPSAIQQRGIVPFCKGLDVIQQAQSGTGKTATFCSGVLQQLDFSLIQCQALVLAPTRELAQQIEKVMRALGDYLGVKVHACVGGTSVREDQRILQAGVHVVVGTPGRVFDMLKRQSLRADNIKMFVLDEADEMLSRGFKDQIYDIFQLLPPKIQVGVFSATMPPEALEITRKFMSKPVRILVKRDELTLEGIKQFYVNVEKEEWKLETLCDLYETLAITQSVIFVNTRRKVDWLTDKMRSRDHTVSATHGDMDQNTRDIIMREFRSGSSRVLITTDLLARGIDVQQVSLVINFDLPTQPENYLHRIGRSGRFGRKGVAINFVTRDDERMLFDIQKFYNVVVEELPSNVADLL

Assays:
[1] = target: T1, nYFP-SMG7^Δ1-268 (Arabidopsis thaliana) (UniProt A9QM73); experiment: split reporter; BiFC in transfected Arabidopsis mesophyll protoplasts, nYFP on SMG7 and cYFP on the partner, imaged by confocal microscopy after 16 h
T1 sequence: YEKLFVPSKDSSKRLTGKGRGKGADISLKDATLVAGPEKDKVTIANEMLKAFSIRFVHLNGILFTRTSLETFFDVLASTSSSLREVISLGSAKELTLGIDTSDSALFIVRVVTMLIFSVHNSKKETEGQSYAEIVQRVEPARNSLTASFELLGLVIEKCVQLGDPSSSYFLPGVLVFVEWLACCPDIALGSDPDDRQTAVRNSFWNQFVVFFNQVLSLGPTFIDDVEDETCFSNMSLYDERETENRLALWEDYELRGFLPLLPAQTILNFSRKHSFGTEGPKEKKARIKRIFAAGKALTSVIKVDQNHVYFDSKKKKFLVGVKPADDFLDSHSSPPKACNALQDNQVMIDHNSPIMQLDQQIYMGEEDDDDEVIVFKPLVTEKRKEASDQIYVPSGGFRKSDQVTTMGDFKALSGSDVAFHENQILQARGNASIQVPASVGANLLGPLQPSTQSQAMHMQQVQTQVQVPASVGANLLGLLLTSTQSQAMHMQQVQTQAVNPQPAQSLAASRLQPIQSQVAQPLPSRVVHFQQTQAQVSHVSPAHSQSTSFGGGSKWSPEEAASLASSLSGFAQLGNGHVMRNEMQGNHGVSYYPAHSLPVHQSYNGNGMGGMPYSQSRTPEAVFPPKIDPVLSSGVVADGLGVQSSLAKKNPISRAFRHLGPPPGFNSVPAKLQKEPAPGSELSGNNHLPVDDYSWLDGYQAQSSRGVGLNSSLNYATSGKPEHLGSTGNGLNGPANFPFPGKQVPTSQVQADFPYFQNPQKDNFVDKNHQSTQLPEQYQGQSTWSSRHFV

[2] = target: T2, nYFP-SMG7 (Arabidopsis thaliana) (UniProt A9QM73); experiment: as above
T2 sequence: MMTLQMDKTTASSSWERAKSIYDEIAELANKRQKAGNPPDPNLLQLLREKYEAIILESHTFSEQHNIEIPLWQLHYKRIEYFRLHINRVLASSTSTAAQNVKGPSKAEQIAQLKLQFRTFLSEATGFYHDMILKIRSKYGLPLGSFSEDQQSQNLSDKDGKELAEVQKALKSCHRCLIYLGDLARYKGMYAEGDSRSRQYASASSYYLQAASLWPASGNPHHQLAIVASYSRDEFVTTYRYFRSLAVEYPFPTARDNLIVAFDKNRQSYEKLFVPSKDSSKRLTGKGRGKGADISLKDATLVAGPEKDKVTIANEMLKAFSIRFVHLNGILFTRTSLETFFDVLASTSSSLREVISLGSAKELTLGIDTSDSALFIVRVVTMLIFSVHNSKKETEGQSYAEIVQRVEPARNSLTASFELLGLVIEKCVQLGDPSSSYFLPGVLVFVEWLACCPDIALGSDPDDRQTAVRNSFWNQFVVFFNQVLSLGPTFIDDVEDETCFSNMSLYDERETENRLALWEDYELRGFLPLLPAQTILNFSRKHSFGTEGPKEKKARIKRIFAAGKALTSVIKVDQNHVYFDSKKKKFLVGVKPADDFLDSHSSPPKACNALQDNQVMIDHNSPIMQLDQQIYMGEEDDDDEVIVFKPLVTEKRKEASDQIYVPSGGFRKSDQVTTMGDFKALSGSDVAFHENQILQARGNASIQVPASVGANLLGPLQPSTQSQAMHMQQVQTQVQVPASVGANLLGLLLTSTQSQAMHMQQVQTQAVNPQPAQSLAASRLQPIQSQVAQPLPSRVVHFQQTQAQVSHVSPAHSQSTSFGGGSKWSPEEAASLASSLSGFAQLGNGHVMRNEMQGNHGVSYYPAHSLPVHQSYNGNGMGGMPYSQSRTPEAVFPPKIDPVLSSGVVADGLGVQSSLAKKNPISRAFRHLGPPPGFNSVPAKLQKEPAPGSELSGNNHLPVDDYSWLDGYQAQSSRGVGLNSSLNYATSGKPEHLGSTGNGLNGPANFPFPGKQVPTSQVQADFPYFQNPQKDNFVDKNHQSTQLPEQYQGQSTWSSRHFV

binding [1]	binding [2]	Substance
no binding	binds	eIF4A2-cYFP (from UniProt P41377 1-412)
no binding	binds	eIF4A1-cYFP (from UniProt P41376 1-412)
